Source: PMC7914255
No constants are given. Whether binding was seen depends on the method and setting. Sequences can lack the tags named with a protein.

Target: T1, GST-TRIM41 (mouse) (UniProt Q5NCC3)
T1 sequence: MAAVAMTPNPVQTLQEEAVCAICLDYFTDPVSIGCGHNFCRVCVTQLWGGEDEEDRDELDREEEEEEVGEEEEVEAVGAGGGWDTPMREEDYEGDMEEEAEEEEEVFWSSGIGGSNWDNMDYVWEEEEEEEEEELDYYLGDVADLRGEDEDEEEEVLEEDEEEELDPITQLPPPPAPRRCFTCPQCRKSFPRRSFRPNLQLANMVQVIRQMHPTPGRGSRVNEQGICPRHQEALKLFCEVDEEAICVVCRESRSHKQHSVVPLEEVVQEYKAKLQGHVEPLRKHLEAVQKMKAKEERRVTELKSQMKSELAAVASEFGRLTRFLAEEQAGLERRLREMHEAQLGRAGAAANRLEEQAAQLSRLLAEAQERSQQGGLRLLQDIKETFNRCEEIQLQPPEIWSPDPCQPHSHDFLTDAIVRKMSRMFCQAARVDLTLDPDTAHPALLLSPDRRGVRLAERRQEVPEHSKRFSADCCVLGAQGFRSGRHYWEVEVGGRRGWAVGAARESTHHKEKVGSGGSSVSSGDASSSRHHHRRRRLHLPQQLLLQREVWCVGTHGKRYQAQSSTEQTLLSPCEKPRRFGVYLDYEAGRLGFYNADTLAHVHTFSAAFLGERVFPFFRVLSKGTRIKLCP
Assay: condition: 1 μg GST-TRIM41 with 1 μg recombinant CARD11; pull-down; 1 μg GST or GST-TRIM41 coincubated with 1 μg recombinant CARD9, CARD11 or BCL10 for 1 h; sepharose 4B beads; Western blotting; both purified

B1: Recombinant CARD11 (Creative BioMart Card11-385M) (protein, UniProt Q8CIS0 1-1159)
chain: MPGGGPAMDDYMETLKDEEEALWDNVECNRHMLSRYINPAKLTPYLRQCKVIDEQDEDEVLNAPMLPSKINRAGRLLDILHTKGQRGYVVFLESLEFYYPELYKLVTGKEPTRRFSTIVVEEGHEGLTHFLMNEVIKLQQQVKAKDLQRCELLAKSRQLEDEKKQLSLIRVELLTFQERYYKMKEERDSYNDELVKVKDDNYNLAMRYAQLSEEKNMAVMRSRDLQLEIDQLKHRLNKMEEECKLERNQSLKLKNDIENRPRKEQVLELERENEMLKTKIQELQSIIQAGKRSLPDSDKAILDILEHDRKEALEDRQELVNKIYNLQEEVRQAEELRDKYLEEKEDLELKCSTLGKDCEMYKHRMNTVMLQLEEVERERDQAFHSRDEAQTQYSQCLIEKDKYRKQIRELEEKNDEMRIEMVRREACIVNLESKLRRLSKDNGSLDQSLPRHLPATIISQNLGDTSPRTNGQEADDSSTSEESPEDSKYFLPYHPPRRRMNLKGIQLQRAKSPISMKQASEFQALMRTVKGHEEDFTDGSPSSSRSLPVTSSFSKMQPHRSRSSIMSITAEPPGNDSIVRRCKEDAPHRSTVEEDNDSCGFDALDLDDENHERYSFGPPSIHSSSSSHQSEGLDAYDLEQVNLMLRKFSLERPFRPSVTSGGHVRGTGPLVQHTTLNGDGLITQLTLLGGNARGSFIHSVKPGSLAERAGLREGHQLLLLEGCIRGERQSVPLDACTKEEARWTIQRCSGLITLHYKVNHEGYRKLLKEMEDGLITSGDSFYIRLNLNISSQLDACSMSLKCDDVVHVLDTMYQDRHEWLCARVDPFTDQDLDTGTIPSYSRAQQLLLVKLQRLVHRGNREEADSAHHTLRSLRNTLQPEEMLSTSDPRVSPRLSRASFFFGQLLQFVSRSENKYKRMNSNERVRIISGSPLGSLSRSSLDATKLLTEKHEELDPENELSRNLTLIPYSLVRAFHCERRRPVLFTPTMLAKTLVQKLLNSGGAMEFTICKSDIVTRDEFLRKQKTETIIYSREKNPNTFECIVPANIEAVAAKNKHCLLEAGIGCVRDLIKCKVYPIVLLIRVSEKNIKRFRKLLPRPETEEEFLRVCRLKEKELEALPCLYATVEAEMWSSVEELLRVLKDKIVEEQRKTIWVDEDQL
binding: no binding
